The test system of assay [1] is 5XFAD mice. The note with it: 8-month old 5XFAD mice, 2 mg/kg donepezil.
Assay [2] concerns 5XFAD mice. The note with it: 8-month-old 5XFAD mice, 2 mg/kg donepezil, 3 months oral.

For `COc1cc2c(cc1OC)C(=O)C(CC1CCN(Cc3ccccc3)CC1)C2` (centres unmarked) [donepezil], in assay [1], the MBP level result was “as low as that of the vehicle treated 5XFAD mice”. Besides, in assay [2], the “decrease of plasma cathepsin B level compared to vehicle treated 5XFAD mice” value came out at 97.13%.

These data come from patent publication US20220265657A1, “ADMINISTRATION METHOD AND DOSAGE REGIMEN FOR TREATMENT OF NEURODEGENERATIVE DISEASES USING TRAMETINIB AND MARKERS” (GENUV INC., priority 2019, published 2022).
